No constants are given. Whether binding was seen depends on the method and setting. For part of these data: In cells and extracts the contact can be indirect. Some binding calls cover weakened binding; strength is not graded here.
Legend:
[1] = biological target: p65(186-306) (UniProt Q04206); test: GST pull-down with purified proteins (discussion of the results)
[2] = biological target: p65(186-306) (UniProt Q04206); test: GST pull-down of purified p65(186-306), immunoblot anti-p65
[3] = biological target: T1, purified recombinant NF-κB p65 (UniProt Q04206 1-551, limits assumed); test: GST pull-down with purified proteins (discussion of the results)
T1 construct: also called purified NF-κB p65

Amino acid sequences for entries named in this document (tags omitted). A change or cut given only in a name is not applied to a line headed by its entry. Residues count along the entry.
UniProt Q04206: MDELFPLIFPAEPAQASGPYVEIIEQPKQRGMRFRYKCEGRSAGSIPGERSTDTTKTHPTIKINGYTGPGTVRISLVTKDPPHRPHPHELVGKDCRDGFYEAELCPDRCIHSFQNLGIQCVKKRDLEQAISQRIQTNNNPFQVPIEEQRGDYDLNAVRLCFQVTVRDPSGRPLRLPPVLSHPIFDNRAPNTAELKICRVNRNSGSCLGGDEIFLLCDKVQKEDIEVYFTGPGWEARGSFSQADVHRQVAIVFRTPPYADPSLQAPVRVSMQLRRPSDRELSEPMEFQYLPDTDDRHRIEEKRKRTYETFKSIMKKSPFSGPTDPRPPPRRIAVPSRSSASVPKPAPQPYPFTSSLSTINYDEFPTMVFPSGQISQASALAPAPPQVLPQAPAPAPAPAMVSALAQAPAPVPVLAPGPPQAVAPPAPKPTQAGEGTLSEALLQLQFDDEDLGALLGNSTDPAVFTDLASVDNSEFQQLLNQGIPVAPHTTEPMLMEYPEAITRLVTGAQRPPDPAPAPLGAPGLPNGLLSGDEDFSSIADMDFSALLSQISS
p65(1-180): residues 1-180 of Q04206
p65(186-306): residues 186-306 of Q04206
UniProt P40763: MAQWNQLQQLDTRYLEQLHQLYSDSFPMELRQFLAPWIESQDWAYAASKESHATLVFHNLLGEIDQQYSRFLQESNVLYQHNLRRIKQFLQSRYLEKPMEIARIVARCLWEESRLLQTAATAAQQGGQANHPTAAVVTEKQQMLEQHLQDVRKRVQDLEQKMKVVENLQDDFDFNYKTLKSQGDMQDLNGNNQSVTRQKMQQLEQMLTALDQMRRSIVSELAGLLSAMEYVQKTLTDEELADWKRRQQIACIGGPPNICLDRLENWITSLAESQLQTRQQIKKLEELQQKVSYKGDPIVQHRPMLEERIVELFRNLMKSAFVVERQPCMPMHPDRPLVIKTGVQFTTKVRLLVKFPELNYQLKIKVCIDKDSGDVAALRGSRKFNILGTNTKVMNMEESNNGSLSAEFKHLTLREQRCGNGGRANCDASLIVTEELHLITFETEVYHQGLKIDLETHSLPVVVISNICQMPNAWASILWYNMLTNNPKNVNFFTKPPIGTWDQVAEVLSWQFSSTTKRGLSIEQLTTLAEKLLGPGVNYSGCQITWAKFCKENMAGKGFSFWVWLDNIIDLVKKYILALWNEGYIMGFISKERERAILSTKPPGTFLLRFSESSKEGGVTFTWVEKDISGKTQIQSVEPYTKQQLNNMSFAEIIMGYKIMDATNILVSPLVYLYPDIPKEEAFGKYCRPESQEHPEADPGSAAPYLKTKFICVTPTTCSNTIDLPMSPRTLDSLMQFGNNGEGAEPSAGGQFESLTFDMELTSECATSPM
GST-STAT3 (DBD; amino acids 257-514): residues 257-514 of P40763
UniProt P25963: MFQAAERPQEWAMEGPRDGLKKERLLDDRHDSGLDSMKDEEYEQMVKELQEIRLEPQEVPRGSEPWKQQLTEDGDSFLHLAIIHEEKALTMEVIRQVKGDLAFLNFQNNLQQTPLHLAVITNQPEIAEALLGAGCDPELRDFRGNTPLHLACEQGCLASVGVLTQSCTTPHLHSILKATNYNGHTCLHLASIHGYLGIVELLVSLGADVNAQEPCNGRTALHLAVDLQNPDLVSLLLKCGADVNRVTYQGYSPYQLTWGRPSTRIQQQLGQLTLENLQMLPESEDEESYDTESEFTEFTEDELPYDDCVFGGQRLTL

[4] = biological target: p65(1-180) (UniProt Q04206); test: as above
[5] = biological target: T2, STAT3 (in cells / cell lysates) (human, UniProt P40763 2-770); test: GST pull-down from ZR-75-1 cell lysates, immunoblot anti-STAT3
T2 construct: Endogenous protein of the cell lines

[6] = biological target: T3, NF-κB p65 (in cells / cell lysates) (human, UniProt Q04206 1-551); test: GST pull-down from ZR-75-1 cell lysates, immunoblot anti-p65
T3 construct: Endogenous protein of the cell lines

[7] = biological target: p65(1-180) (UniProt Q04206); test: GST pull-down of purified p65(1-180) (figure legend)
[8] = biological target: T1, purified recombinant NF-κB p65; test: GST pull-down (figure legend)
[9] = biological target: p65(1-180) (UniProt Q04206); test: GST pull-down of purified p65(1-180), immunoblot anti-p65
[10] = biological target: p65(186-306) (UniProt Q04206); test: GST pull-down of purified p65(186-306) (figure legend)
[11] = biological target: T1, purified recombinant NF-κB p65; test: GST pull-down of purified recombinant p65, immunoblot anti-p65
[12] = biological target: purified recombinant STAT3 (UniProt P40763 1-770, limits assumed); test: GST pull-down of purified recombinant STAT3, immunoblot anti-STAT3
Protocol: FIGS. 9A-D: MUC1-C binds directly to the STAT3 DBD. (FIG. 9A) Lysates from ZR-75-1 (left) and MCF-7 (right) cells were subjected to immunoprecipitation with anti-STAT3 or a control IgG. The precipitates were immunoblotted with the indicated antibodies. (FIG. 9B) Lysates from ZR-75-1 cells were incubated with GST and GST-MUC1-CD bound to glutathione beads. The adsorbates were immunoblotted with anti-STAT3 Input of the GST and GST-MUC1-CD proteins was assessed by Coomassie blue staining. (FIG. 9C) Amino acid sequence of the MUC1 cytoplasmic domain is shown with the indicated phosphorylation and binding sites. GST, GST-MUC1-CD, GST-MUC1-CD (1-45) and GST-MUC1-CD (46-72) bound to glutathione beads were incubated with purified recombinant STAT3. The adsorbates were immunoblotted with anti-STAT3. Input of the GST and GST-MUC1-CD fusion proteins was assessed by Coomassie blue staining. (FIG. 9D) Structure of STAT3. GST, GST-STAT3 (full length; amino acids 1-770), […], […] and […] bound to glutathione beads were incubated with purified MUC1-CD. Adsorbates were immunoblotted with anti-MUC1-C. Input of the GST and GST-STAT3 fusion proteins was assessed by Coomassie blue staining.
MUC1-C directly interacts with STAT3. […]

[13] = biological target: GST-STAT3 (DBD; amino acids 257-514) (UniProt P40763); test: GST pull-down with purified proteins (discussion of the results)
[14] = biological target: GST-STAT3 (DBD; amino acids 257-514) (UniProt P40763); test: GST-STAT3 deletion mutants on glutathione beads incubated with purified MUC1-CD, immunoblot anti-MUC1-C
[15] = biological target: GST-STAT3 (DBD; amino acids 257-514) (UniProt P40763); test: GST-STAT3 fragments pull-down of purified MUC1-CD (figure legend)
[16] = biological target: p65(186-306) (UniProt Q04206); test: competition: GST-IκBα pull-down of p65(186-306) with increasing amounts of MUC1-CD; competitor GST-IκBα

Measured: binding

GST-IκBα (from UniProt P25963 1-317)
binds: [1] | [2]

GST-MUC1-CD (from UniProt P15941 1184-1255)
not listed: [13] | [14] | [15] | [16]
binds: all other assays above

B1: MUC1-CD (purified, GST moiety removed with thrombin) (other)
chain: CQCRRKNYGQLDIFPARDTYHPMSEYPTYHTHGRYVPPSSTDRSPYEKVSAGNGGSSLSYTNPAVAATSANL
notes: also called purified MUC1-CD; MUC1-C cytoplasmic domain
binds: [13] | [14] | [15] | [16]
